Screening data

Data taken from PubChem BioAssay AID504749, deposited by NCATS (2011).

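A panel of P. falciparum strains inside erythrocytes is exposed to compounds for three days, then a DNA-binding dye reports the amount of parasite DNA.
Each compound was titrated across a series from about 0.000037 to 29 µM.
The number is the fitted AC50, the concentration giving a half-maximal change in signal; a lower value means higher potency, whether the curve shows a decrease or an increase.
Calls follow the curve class and fit quality: every row here is inconclusive, covering signal-raising curves and weak, poorly fitted, partial or highest-dose-only inhibition curves.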

Values are in µM.
Every entry below has the call inconclusive.
These entries are mostly ones the record files as inconclusive; other results of the assay are not listed here.
Potencies fitted to partial, single-point or poorly fitting curves are rough.
The first word of each remark tells which way the curve ran; it can be opposite to the aim of the assay.

Compound: Cc1c(C)c2c(c(C)c1O)CCC(C)(COc1ccc(CC3SC(=O)NC3=O)cc1)O2 (stereo not drawn)
condition: N140
potency (µM): 11.22
curve: inhibitor, single point

Compound: Cc1c(C)c2c(c(C)c1O)CCC(C)(COc1ccc(CC3SC(=O)NC3=O)cc1)O2 (stereo not drawn)
condition: ATS189
potency (µM): 11.22
curve: inhibitor, single point

Compound: Cc1c(C)c2c(c(C)c1O)CCC(C)(COc1ccc(CC3SC(=O)NC3=O)cc1)O2 (stereo not drawn)
condition: TAB165
potency (µM): 11.22
curve: inhibitor, single point

Compound: Cc1c(C)c2c(c(C)c1O)CCC(C)(COc1ccc(CC3SC(=O)NC3=O)cc1)O2 (stereo not drawn)
condition: AA1029
potency (µM): 10
curve: inhibitor, single point

Compound: Cc1c(C)c2c(c(C)c1O)CCC(C)(COc1ccc(CC3SC(=O)NC3=O)cc1)O2 (stereo not drawn)
condition: CP269
potency (µM): 19.01
curve: inhibitor, partial curve, poor fit

Compound: Cc1c(C)c2c(c(C)c1O)CCC(C)(COc1ccc(CC3SC(=O)NC3=O)cc1)O2 (stereo not drawn)
condition: CP194
potency (µM): 16.94
curve: inhibitor, single point

Compound: Cc1c(C)c2c(c(C)c1O)CCC(C)(COc1ccc(CC3SC(=O)NC3=O)cc1)O2 (stereo not drawn)
condition: ECU
potency (µM): 8.912
curve: inhibitor, single point

Compound: Cc1c(C)c2c(c(C)c1O)CCC(C)(COc1ccc(CC3SC(=O)NC3=O)cc1)O2 (stereo not drawn)
condition: DIV17
potency (µM): 12
curve: inhibitor, single point

Compound: Cc1c(C)c2c(c(C)c1O)CCC(C)(COc1ccc(CC3SC(=O)NC3=O)cc1)O2 (stereo not drawn)
condition: Dd2
potency (µM): 10
curve: inhibitor, partial curve

Compound: CCCCN(CCCC)CCC(O)c1cc2c(Cl)cc(Cl)cc2c2cc(C(F)(F)F)ccc12 (stereo not drawn)
condition: GB4
potency (µM): 0.0072
curve: inhibitor, full curve, poor fit

Compound: CCCCN(CCCC)CCC(O)c1cc2c(Cl)cc(Cl)cc2c2cc(C(F)(F)F)ccc12 (stereo not drawn)
condition: PC49
potency (µM): 1.259
curve: inhibitor, full curve, poor fit

Compound: CCCCN(CCCC)CCC(O)c1cc2c(Cl)cc(Cl)cc2c2cc(C(F)(F)F)ccc12 (stereo not drawn)
condition: DIV17
potency (µM): 0.0057
curve: inhibitor, full curve, poor fit

Compound: CCCCN(CCCC)CCC(O)c1cc2c(Cl)cc(Cl)cc2c2cc(C(F)(F)F)ccc12 (stereo not drawn)
condition: W2
potency (µM): 0.002
curve: activator

Compound: CCCCN(CCCC)CCC(O)c1cc2c(Cl)cc(Cl)cc2c2cc(C(F)(F)F)ccc12 (stereo not drawn)
condition: DIV14
potency (µM): 0.0057
curve: inhibitor, full curve, poor fit

Compound: CC(=O)[C@]1(O)Cc2c(O)c3c(c(O)c2[C@@H](O[C@H]2C[C@H](N)[C@H](O)[C@H](C)O2)C1)C(=O)c1ccccc1C3=O
condition: PC26
potency (µM): 19.01
curve: inhibitor, single point

Compound: CC(=O)[C@]1(O)Cc2c(O)c3c(c(O)c2[C@@H](O[C@H]2C[C@H](N)[C@H](O)[C@H](C)O2)C1)C(=O)c1ccccc1C3=O
condition: CP297
potency (µM): 19.01
curve: inhibitor, single point

Compound: CC(=O)[C@]1(O)Cc2c(O)c3c(c(O)c2[C@@H](O[C@H]2C[C@H](N)[C@H](O)[C@H](C)O2)C1)C(=O)c1ccccc1C3=O
condition: CP265
potency (µM): 15.85
curve: inhibitor, single point

Compound: CC(=O)[C@]1(O)Cc2c(O)c3c(c(O)c2[C@@H](O[C@H]2C[C@H](N)[C@H](O)[C@H](C)O2)C1)C(=O)c1ccccc1C3=O
condition: CP192
potency (µM): 19.01
curve: inhibitor, single point

Compound: CC(=O)[C@]1(O)Cc2c(O)c3c(c(O)c2[C@@H](O[C@H]2C[C@H](N)[C@H](O)[C@H](C)O2)C1)C(=O)c1ccccc1C3=O
condition: CP203
potency (µM): 16.94
curve: inhibitor, single point

Compound: CC(=O)[C@]1(O)Cc2c(O)c3c(c(O)c2[C@@H](O[C@H]2C[C@H](N)[C@H](O)[C@H](C)O2)C1)C(=O)c1ccccc1C3=O
condition: CP201
potency (µM): 15.1
curve: inhibitor, single point

Compound: CC(=O)[C@]1(O)Cc2c(O)c3c(c(O)c2[C@@H](O[C@H]2C[C@H](N)[C@H](O)[C@H](C)O2)C1)C(=O)c1ccccc1C3=O
condition: CP325
potency (µM): 0.9528
curve: inhibitor, partial curve, poor fit

Compound: CC(=O)[C@]1(O)Cc2c(O)c3c(c(O)c2[C@@H](O[C@H]2C[C@H](N)[C@H](O)[C@H](C)O2)C1)C(=O)c1ccccc1C3=O
condition: CP247
potency (µM): 0.2818
curve: inhibitor, full curve, poor fit

Compound: CC(=O)[C@]1(O)Cc2c(O)c3c(c(O)c2[C@@H](O[C@H]2C[C@H](N)[C@H](O)[C@H](C)O2)C1)C(=O)c1ccccc1C3=O
condition: DIV30
potency (µM): 19.01
curve: inhibitor, single point

Compound: O=C(CCCN1CCC(O)(c2ccc(Br)cc2)CC1)c1ccc(F)cc1
condition: CP305
potency (µM): 6.424
curve: inhibitor, single point

Compound: O=C(CCCN1CCC(O)(c2ccc(Br)cc2)CC1)c1ccc(F)cc1
condition: CP335
potency (µM): 5.726
curve: inhibitor, single point

Compound: O=C(CCCN1CCC(O)(c2ccc(Br)cc2)CC1)c1ccc(F)cc1
condition: CP286
potency (µM): 7.08
curve: inhibitor, single point

For reference, 3 entries once more:

Result for Cc1c(C)c2c(c(C)c1O)CCC(C)(COc1ccc(CC3SC(=O)NC3=O)cc1)O2 (stereo not drawn) [ATS189] was potency 11.22 µM (inhibitor, single point).
Result for O=C(CCCN1CCC(O)(c2ccc(Br)cc2)CC1)c1ccc(F)cc1 [CP286] was potency 7.08 µM (inhibitor, single point).
Result for CC(=O)[C@]1(O)Cc2c(O)c3c(c(O)c2[C@@H](O[C@H]2C[C@H](N)[C@H](O)[C@H](C)O2)C1)C(=O)c1ccccc1C3=O [PC26] was potency 19.01 µM (inhibitor, single point).